# Measured values as given in PubChem BioAssay AID540276 (National Center for Advancing Translational Sciences (NCATS), 2011).
# Values joined by “and” are separate entries in the source; they are usually repeats but may differ in a detail not shown here. Identical values can stand only once. Among all 300,000 compounds or so, about 5,400 (1.8%) were called active. Inconclusive means that the source gave no clear call. Such entries were picked first, then a sample of the others. Calls come from the whole dose curve; tested in HEK293 cells. Potencies beside an inconclusive call are fits to weak or partial responses and may not hold up.
# Assay: qHTS for inhibitors of binding or entry into cells for Marburg Virus
# Settings: Marburg virus pseudotyped entry inhibition, cell reporter; series mostly up to 37.8 µM
# Potency is the fitted concentration of half-maximal effect.
row,Compound,Potency
1,CCCSc1ccc2nc(NC(=O)OC)[nH]c2c1,"inconclusive: 29.1 µM [inhibitor, single point]"
2,Cc1ccc(S(=O)(=O)N(CC(=O)N2CCCCC2)c2cccc(C)c2)cc1,inactive
3,COc1ccccc1CNc1cc(-c2ccccc2)ccc1OC,inactive
4,Cn1nc(-c2ccc3c(c2)OCCO3)c2ccccc2c1=O,"inconclusive: 35.5 µM [inhibitor, single point]"
5,Cc1ccc(OCC(=O)c2cc(C)n(-c3ccccc3)c2C)c([N+](=O)[O-])n1,"inconclusive: 20 µM [inhibitor, partial curve, poor fit]"
6,COc1ccc2cc(OCC(=O)NNC(=O)Nc3ccc(C(C)=O)cc3)ccc2c1,"inconclusive: 1.58 µM [activator, partial curve, poor fit]"
7,CCC(c1nnnn1C1CCCCC1)N(Cc1ccco1)Cc1cc2ccc(OC)cc2[nH]c1=O (centres undefined),"inconclusive: 11.2 µM [inhibitor, partial curve, poor fit]"
8,O=C(O)C1CC=CCC1C(=O)NNS(=O)(=O)c1ccccc1 (centres undefined),"inconclusive: 5.62 µM [activator, single point]"
9,COc1ccc(CCNC(=O)c2cccc(NS(=O)(=O)c3ccccc3F)c2)cc1OC,inactive
10,CC(C)CNC(=S)Nc1ccc(F)cc1,"inconclusive: 6.31 µM [activator, single point]"
11,CCC(CC)C(=O)Nc1cccc(/C(C)=N/NC(=O)c2ccccc2Cl)c1,inactive
12,CCOC(=O)C1CCN(CCCSc2ccc(C)cc2)CC1,"inconclusive: 15.8 µM [inhibitor, single point]"
13,Cc1cc(Nc2ccc(C(C)C)cc2)n2ncnc2n1,"inconclusive: 23.1 µM [inhibitor, partial curve, poor fit]"
14,NC(=O)c1nsc(C(=O)N(Cc2cccnc2)C(C(=O)NCc2ccc(F)cc2)c2ccc(F)cc2)c1N (centres undefined),"inconclusive: 3.16 µM [inhibitor, partial curve, poor fit]"
15,O=C(Nc1ccc(OCC(F)(F)C(F)F)cc1)c1ccncc1,inactive
16,CN(CC(=O)Nc1ccc(N2CCOCC2)cc1)C(=O)CSc1ccc(Br)cc1,inactive
17,O=C(O)c1ccc2cccnc2n1,"inconclusive: 3.55 µM [activator, partial curve, poor fit]"
18,COCCNc1nnc(SCC(=O)c2c[nH]c3ccccc23)s1,inactive
19,CC(=O)OC[C@H]1O[C@H](C#CC2=CCCCC2)C=C[C@H]1OC(C)=O,"inconclusive: 1.19 µM [activator, single point]"
20,O=c1c2ccccc2ncn1CCCSc1ccccc1,"inconclusive: 29.1 µM [inhibitor, single point]"
21,C=C(C)COc1ccc(-c2ncncc2-c2ccccc2OC)c(O)c1,"inconclusive: 15.8 µM [inhibitor, single point]"
22,COc1cccc2cc(C(C)N(CCCN3CCOCC3)C(=S)Nc3c(C)cccc3C)oc12 (centres undefined),"inconclusive: 20 µM [inhibitor, partial curve, poor fit]"
23,O=C(NCCCN1CCOCC1)C(=O)N/N=C/c1c2ccccc2cc2ccccc12,"inconclusive: 7.94 µM [inhibitor, partial curve, poor fit]"

row,Compound,Potency
1,CCN(CC)CCCNC(=O)c1cn(CC)c2ccc(S(=O)(=O)N3CCc4ccccc4C3)cc2c1=O,"inconclusive: 17.8 µM [activator, single point]"
2,Cc1ccc(-c2cnc(SCCNC(=O)c3ccco3)[nH]2)cc1,"inconclusive: 35.5 µM [activator, single point]"
3,Cc1cccc(C2c3[nH]c4ccccc4c3CCN2Cc2cnn(-c3ccc(F)cc3)c2)n1 (centres undefined),inactive
4,CCCCN(CCCNc1ncnc2nc[nH]c12)c1ccccc1,inactive
5,CCc1ccccc1N(CC(=O)NC1CCCCC1)C(=O)CCCC(=O)Nc1ccccn1,"inconclusive: 11.2 µM [inhibitor, partial curve, poor fit]"
6,N#Cc1ccsc1NC(=O)CN1CCN(c2ccc(O)cc2)CC1,"inconclusive: 0.447 µM [activator, partial curve, poor fit]"
7,COC(=O)C1=C(N)Oc2cc(N(C)C)ccc2C1c1ccccc1OC (centres undefined),"inconclusive: 7.94 µM [inhibitor, partial curve, poor fit]"
8,COc1ccc(CNc2ccc3c(c2)nc(C)n3C)cc1,"inconclusive: 3.16 µM [activator, partial curve, poor fit]"
9,COc1ccc(C(=O)NC(=S)N2CCOCC2)cc1Br,inactive
10,Cc1ccc(C(=O)Nc2cccc(O)c2)cc1S(=O)(=O)N1CCCCCC1,"inconclusive: 7.94 µM [inhibitor, single point]"
11,O=C(NCCCCNC(=O)c1ccccc1F)c1ccccc1F,"inconclusive: 10 µM [inhibitor, partial curve]"
12,O=CNCCCc1nc2ccccc2n1CCc1ccccc1,"inconclusive: 4.47 µM [inhibitor, partial curve, poor fit]"
13,O=C(NCC(c1ccco1)N1CCCCC1)c1ccc(COc2ccc(Cl)cc2)cc1 (centres undefined),"inconclusive: 14.1 µM [inhibitor, partial curve, poor fit]"
14,COC(=O)c1cc2c(ccn2-c2ccc(F)cc2)n1Cc1ccc(OC)cc1,inactive
15,CNC(=O)/C(C#N)=C/c1cccc(Oc2ccccc2)c1,inactive
16,CN1CCN(CCC(=O)N/N=C/c2cc3c(cc2[N+](=O)[O-])OCO3)CC1,inactive
17,Cc1cc2cc(C(c3nnnn3Cc3ccco3)N3CCc4ccccc43)c(=O)[nH]c2cc1C (centres undefined),"inconclusive: 35.5 µM [inhibitor, single point]"
18,C/C(=N\NC(=O)c1cccnc1)c1c(O)cc(C)oc1=O,inactive
19,O=S(=O)(c1ccc(F)c(Cl)c1)N1CCCC1,inactive
20,COc1ccc(CCNC(=O)C2CCN(Cc3nc(-c4ccccc4F)oc3C)CC2)cc1OC,"inconclusive: 13 µM [inhibitor, partial curve, poor fit]"
21,Cc1cc(=O)n2cccc(O)c2n1,inactive
22,CC(=CC[Si](C)(C)C)CCC=O,inactive
23,COc1cc2c(cc1OC)C(c1ccccc1[N+](=O)[O-])N(C(C)=O)CC2 (centres undefined),"inconclusive: 31.6 µM [inhibitor, single point]"

row,Compound,Potency
1,Cc1ccc(C)c2[nH]c(=O)c(CN(Cc3nnnn3C3CCCCC3)CC3CCCO3)cc12 (centres undefined),"inconclusive: 18.3 µM [inhibitor, single point]"
2,CCOC(=O)CNC(=O)CSc1nnc(C)c(=O)[nH]1,inactive
3,COc1ccc2c(c1)CCC1=C2NC(=S)NC1c1ccc(N(C)C)cc1 (centres undefined),"inconclusive: 5.62 µM [inhibitor, single point]"
4,COc1ccc(C2(C(=O)Nc3ccc(C(=O)O)cc3)CCOCC2)cc1,inactive
5,Oc1[nH]c2ccccc2c1N=NC(=S)NCCc1ccccc1,"inconclusive: 25.9 µM [inhibitor, partial curve, poor fit]"
6,O=C(c1ccccc1)N1CCN(C(=O)c2nn3c(C(F)(F)F)cc(-c4ccco4)nc3c2Br)CC1,inactive
7,Cc1ccc(-c2nc(N/N=C/c3ccncc3)c3ccccc3n2)cc1,active: 2.91 µM
8,CC(=O)NNc1nc(-c2ccc(C)cc2)cs1,"inconclusive: 3.16 µM [activator, single point]"
9,Cc1ccc(C)c(N2CCN(C(=O)C3CCCN(S(=O)(=O)c4cccc5nsnc45)C3)CC2)c1 (centres undefined),"inconclusive: 12.6 µM [inhibitor, partial curve, poor fit]"
10,Cc1ccc(N2NC(C)(c3cccs3)NC2=S)cc1 (centres undefined),"inconclusive: 2.51 µM [activator, partial curve, poor fit]"
11,Cc1c(N=C/C=C2\N(C)c3ccccc3C2(C)C)c(=O)n(-c2ccccc2)n1C,"inconclusive: 16.4 µM [inhibitor, single point]"
12,COc1cccc(S(=O)(=O)Nc2ccc(C(=O)Nc3ccncc3)cc2)c1,"inconclusive: 8.91 µM [inhibitor, partial curve]"
13,COc1ccc(C(=S)N2CCCCC2)cc1Br,inactive
14,CCN(CC)CCCCCCCCOC(=O)c1cc(OC)c(OC)c(OC)c1,active: 23.1 µM and active: 7.94 µM
15,CCOC(=O)Cc1csc(NC(=O)C(C)(C)C)n1,"inconclusive: 8.2 µM [activator, partial curve, poor fit]"
16,Cn1cc(C(CC(=O)O)C(=O)O)c2ccccc21 (centres undefined),"inconclusive: 9.2 µM [activator, partial curve, poor fit]"
17,O=C(c1nc2ccccn2c1CN1CCCC(OCc2ccccc2)C1)N1CCCC1 (centres undefined),"inconclusive: 10 µM [inhibitor, partial curve, poor fit]"
18,COc1ccc(OC)c(NC(=O)Cn2ccc3ccccc3c2=O)c1,inactive
19,COc1ccc(CN(C)c2ccc(S(=O)(=O)N3CCN(C)CC3)cc2[N+](=O)[O-])cc1OC,"inconclusive: 2.51 µM [inhibitor, full curve, poor fit]"
20,CSCCC(=O)Nc1ccc(C(C)=O)cc1,"inconclusive: 11.6 µM [activator, single point]"
21,CCOC(=O)N1CCN(c2cc(N3CCN(CC)CC3)c(F)cc2[N+](=O)[O-])CC1C (centres undefined),"inconclusive: 29.1 µM [inhibitor, single point]"
22,Cn1c(CCCOc2ccc(Cl)cc2Cl)nnc1SCC(=O)Nc1ccc(F)c(Cl)c1,"inconclusive: 35.5 µM [activator, single point]"
23,COc1cccc(CNC(=O)C(C(=O)NCc2cccc(OC)c2)c2ncc(C(F)(F)F)cc2Cl)c1,"inconclusive: 20 µM [inhibitor, partial curve, poor fit]"
